Source: article doi:10.1101/2021.09.14.460283
No constants are given. Whether binding was seen depends on the method and setting. In cells and extracts the contact can be indirect. Some entries that bind do so weakly or less than the wild type.

Sequences of proteins named here, by UniProt entry; tags and fusion partners are left off.
UniProt Q2M2I8: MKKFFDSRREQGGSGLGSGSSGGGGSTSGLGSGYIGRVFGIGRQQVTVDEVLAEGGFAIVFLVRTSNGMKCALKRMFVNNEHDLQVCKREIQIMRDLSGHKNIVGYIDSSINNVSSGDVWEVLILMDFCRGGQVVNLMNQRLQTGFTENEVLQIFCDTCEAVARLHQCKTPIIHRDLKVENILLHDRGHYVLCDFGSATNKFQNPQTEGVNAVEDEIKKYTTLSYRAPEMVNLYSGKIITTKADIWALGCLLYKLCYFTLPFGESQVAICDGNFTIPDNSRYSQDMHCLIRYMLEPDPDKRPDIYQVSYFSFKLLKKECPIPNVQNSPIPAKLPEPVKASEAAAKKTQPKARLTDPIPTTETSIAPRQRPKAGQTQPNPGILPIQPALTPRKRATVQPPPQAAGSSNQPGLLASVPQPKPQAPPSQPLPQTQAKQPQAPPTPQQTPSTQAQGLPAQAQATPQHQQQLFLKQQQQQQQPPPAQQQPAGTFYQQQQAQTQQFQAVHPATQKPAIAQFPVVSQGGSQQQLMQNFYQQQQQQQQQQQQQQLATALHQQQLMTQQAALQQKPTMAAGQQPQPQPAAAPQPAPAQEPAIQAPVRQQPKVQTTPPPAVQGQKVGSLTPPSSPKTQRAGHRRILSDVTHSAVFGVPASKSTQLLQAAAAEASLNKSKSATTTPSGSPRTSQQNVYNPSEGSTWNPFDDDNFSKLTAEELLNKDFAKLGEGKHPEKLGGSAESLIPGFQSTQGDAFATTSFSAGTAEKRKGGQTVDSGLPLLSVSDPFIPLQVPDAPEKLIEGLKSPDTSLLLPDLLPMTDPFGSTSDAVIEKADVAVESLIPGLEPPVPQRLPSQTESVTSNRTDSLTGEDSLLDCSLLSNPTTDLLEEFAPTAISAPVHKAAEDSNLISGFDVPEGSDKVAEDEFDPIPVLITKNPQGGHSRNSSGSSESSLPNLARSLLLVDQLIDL
UniProt Q15311: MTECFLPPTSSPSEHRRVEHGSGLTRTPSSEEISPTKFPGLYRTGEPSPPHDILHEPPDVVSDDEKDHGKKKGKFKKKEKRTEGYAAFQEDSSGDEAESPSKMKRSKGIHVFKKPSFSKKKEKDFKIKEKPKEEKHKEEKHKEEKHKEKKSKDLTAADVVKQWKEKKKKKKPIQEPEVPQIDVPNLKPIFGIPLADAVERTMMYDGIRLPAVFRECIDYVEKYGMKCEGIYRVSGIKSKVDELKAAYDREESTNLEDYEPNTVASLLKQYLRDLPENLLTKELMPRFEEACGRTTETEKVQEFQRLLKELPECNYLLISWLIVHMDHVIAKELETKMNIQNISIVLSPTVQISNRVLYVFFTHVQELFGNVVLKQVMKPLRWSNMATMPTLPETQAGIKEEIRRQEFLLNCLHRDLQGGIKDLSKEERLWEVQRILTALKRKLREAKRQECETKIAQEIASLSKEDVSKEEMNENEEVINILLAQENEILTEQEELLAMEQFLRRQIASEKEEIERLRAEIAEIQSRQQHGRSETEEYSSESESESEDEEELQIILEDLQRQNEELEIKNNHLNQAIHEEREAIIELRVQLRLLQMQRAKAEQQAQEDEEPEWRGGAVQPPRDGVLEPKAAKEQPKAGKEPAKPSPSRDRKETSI

T1: REPS1 (human (endogenous in FOCUS)) (UniProt Q96D71)
T1 sequence: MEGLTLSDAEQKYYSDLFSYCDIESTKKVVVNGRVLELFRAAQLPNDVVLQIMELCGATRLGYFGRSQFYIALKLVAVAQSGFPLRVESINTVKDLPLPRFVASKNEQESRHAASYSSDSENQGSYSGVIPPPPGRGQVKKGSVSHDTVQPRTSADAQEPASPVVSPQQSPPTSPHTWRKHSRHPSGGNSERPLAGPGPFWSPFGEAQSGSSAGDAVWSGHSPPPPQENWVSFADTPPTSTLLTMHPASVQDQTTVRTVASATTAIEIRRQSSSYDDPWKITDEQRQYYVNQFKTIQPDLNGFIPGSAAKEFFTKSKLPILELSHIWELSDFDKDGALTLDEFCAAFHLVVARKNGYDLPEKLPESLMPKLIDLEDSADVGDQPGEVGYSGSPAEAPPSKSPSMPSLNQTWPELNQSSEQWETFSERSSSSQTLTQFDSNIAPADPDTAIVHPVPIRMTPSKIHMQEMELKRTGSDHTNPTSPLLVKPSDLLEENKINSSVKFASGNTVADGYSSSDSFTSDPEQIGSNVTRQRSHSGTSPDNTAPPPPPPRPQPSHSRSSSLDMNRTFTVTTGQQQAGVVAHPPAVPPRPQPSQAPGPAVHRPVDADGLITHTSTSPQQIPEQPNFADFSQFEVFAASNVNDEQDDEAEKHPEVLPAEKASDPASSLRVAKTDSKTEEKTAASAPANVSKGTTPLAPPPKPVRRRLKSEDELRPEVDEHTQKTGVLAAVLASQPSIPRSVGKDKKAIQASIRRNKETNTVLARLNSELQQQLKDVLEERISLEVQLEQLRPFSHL


How the values were obtained:
Test in all cases: co-IP
[1] = biological target: T1, REPS1 (human (endogenous in FOCUS))
[2] = biological target: adapter-associated kinase 1 (AAK1) (human (endogenous in FOCUS)) (UniProt Q2M2I8)
[3] = biological target: RALBP1 (human (endogenous in FOCUS)) (UniProt Q15311)

Molecule | binding [1] | binding [2] | binding [3]
RALBP1 (from UniProt Q15311 1-655) | binds | binds | –
adapter-associated kinase 1 (AAK1) (from UniProt Q2M2I8 1-961) (enzyme) | binds | – | binds

More lines, now with the values ahead:

binding [1] | binding [2] | binding [3] | Molecule
binds | binds | binds | REPS2 (protein, UniProt Q8NFH8 1-660) MEAAAAAAAAAAAAAAAGGGCGSGPPPLLLSEGEQQCYSELFARCAGAAGGGPGSGPPEAARVAPGTATAAAGPVADLFRASQLPAETLHQITELCGAKRVGYFGPTQFYIALKLIAAAQSGLPVRIESIKCELPLPRFMMSKNDGEIRFGNPAELHGTKVQIPYLTTEKNSFKRMDDEDKQQETQSPTMSPLASPPSSPPHYQRVPLSHGYSKLRSSAEQMHPAPYEARQPLVQPEGSSSGGPGTKPLRHQASLIRSFSVERELQDNSSYPDEPWRITEEQREYYVNQFRSLQPDPSSFISGSVAKNFFTKSKLSIPELSYIWELSDADCDGALTLPEFCAAFHLIVARKNGYPLPEGLPPTLQPEYLQAAFPKPKWDCQLFDSYSESLPANQQPRDLNRMEKTSVKDMADLPVPNQDVTSDDKQALKSTINEALPKDVSEDPATPKDSNSLKARPRSRSYSSTSIEEAMKRGEDPPTPPPRPQKTHSRASSLDLNKVFQPSVPATKSGLLPPPPALPPRPCPSQSEQVSEAELLPQLSRAPSQAAESSPAKKDVLYSQPPSKPIRRKFRPENQATENQEPSTAASGPASAATMKPHPTVQKQSSKQKKAIQTAIRKNKEANAVLARLNSELQQQLKEVHQERIALENQLEQLRPVTVL
– | binds | binds | REPS1 (protein, UniProt Q96D71 1-796) MEGLTLSDAEQKYYSDLFSYCDIESTKKVVVNGRVLELFRAAQLPNDVVLQIMELCGATRLGYFGRSQFYIALKLVAVAQSGFPLRVESINTVKDLPLPRFVASKNEQESRHAASYSSDSENQGSYSGVIPPPPGRGQVKKGSVSHDTVQPRTSADAQEPASPVVSPQQSPPTSPHTWRKHSRHPSGGNSERPLAGPGPFWSPFGEAQSGSSAGDAVWSGHSPPPPQENWVSFADTPPTSTLLTMHPASVQDQTTVRTVASATTAIEIRRQSSSYDDPWKITDEQRQYYVNQFKTIQPDLNGFIPGSAAKEFFTKSKLPILELSHIWELSDFDKDGALTLDEFCAAFHLVVARKNGYDLPEKLPESLMPKLIDLEDSADVGDQPGEVGYSGSPAEAPPSKSPSMPSLNQTWPELNQSSEQWETFSERSSSSQTLTQFDSNIAPADPDTAIVHPVPIRMTPSKIHMQEMELKRTGSDHTNPTSPLLVKPSDLLEENKINSSVKFASGNTVADGYSSSDSFTSDPEQIGSNVTRQRSHSGTSPDNTAPPPPPPRPQPSHSRSSSLDMNRTFTVTTGQQQAGVVAHPPAVPPRPQPSQAPGPAVHRPVDADGLITHTSTSPQQIPEQPNFADFSQFEVFAASNVNDEQDDEAEKHPEVLPAEKASDPASSLRVAKTDSKTEEKTAASAPANVSKGTTPLAPPPKPVRRRLKSEDELRPEVDEHTQKTGVLAAVLASQPSIPRSVGKDKKAIQASIRRNKETNTVLARLNSELQQQLKDVLEERISLEVQLEQLRPFSHL
